Results: patent US20230117592A1 (SRI International, priority 2019, published 2023)
Where “and” joins values, the source holds several entries; their conditions need not be identical. Identical values can stand only once. Structures were worked out from names or drawings and are uncertain.

Protein sequences, listed by entry. Tags and fused reporters are not part of them. Residues count along the entry.
UniProt P16050, 2-662 limits assumed: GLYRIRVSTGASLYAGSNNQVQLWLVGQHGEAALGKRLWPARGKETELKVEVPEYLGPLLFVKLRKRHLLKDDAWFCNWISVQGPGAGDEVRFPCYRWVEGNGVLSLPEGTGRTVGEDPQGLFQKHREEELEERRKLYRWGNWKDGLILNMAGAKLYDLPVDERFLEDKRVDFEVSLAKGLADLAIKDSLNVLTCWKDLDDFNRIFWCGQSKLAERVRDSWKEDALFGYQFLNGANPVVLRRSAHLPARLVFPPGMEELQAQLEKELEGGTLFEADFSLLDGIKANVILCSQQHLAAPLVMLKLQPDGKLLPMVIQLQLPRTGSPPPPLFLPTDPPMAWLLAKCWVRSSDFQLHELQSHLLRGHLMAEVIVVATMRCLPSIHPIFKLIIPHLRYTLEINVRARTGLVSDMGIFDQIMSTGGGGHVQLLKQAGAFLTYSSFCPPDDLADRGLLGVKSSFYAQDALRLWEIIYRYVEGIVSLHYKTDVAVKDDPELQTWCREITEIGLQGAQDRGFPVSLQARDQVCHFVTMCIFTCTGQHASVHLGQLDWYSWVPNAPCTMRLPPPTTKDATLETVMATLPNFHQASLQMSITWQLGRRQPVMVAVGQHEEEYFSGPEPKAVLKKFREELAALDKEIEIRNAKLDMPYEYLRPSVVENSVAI
UniProt P18054, whole entry: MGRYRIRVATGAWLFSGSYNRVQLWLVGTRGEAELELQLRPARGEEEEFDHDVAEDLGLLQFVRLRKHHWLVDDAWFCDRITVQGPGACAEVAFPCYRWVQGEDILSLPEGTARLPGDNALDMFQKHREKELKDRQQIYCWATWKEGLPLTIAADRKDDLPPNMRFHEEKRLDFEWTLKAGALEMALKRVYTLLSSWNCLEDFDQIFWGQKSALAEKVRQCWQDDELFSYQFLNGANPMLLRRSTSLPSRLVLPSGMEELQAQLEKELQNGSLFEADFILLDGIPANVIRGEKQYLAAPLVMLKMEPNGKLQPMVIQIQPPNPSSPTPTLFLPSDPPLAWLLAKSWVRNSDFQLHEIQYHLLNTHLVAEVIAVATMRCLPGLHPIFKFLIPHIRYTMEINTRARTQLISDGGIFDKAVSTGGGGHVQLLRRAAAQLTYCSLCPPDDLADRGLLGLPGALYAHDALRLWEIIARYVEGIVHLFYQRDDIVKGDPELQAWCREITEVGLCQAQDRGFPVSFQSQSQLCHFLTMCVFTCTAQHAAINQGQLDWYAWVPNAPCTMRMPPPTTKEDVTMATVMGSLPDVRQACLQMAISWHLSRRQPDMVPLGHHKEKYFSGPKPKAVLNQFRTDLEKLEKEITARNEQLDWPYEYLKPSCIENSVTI
UniProt P09917, whole entry: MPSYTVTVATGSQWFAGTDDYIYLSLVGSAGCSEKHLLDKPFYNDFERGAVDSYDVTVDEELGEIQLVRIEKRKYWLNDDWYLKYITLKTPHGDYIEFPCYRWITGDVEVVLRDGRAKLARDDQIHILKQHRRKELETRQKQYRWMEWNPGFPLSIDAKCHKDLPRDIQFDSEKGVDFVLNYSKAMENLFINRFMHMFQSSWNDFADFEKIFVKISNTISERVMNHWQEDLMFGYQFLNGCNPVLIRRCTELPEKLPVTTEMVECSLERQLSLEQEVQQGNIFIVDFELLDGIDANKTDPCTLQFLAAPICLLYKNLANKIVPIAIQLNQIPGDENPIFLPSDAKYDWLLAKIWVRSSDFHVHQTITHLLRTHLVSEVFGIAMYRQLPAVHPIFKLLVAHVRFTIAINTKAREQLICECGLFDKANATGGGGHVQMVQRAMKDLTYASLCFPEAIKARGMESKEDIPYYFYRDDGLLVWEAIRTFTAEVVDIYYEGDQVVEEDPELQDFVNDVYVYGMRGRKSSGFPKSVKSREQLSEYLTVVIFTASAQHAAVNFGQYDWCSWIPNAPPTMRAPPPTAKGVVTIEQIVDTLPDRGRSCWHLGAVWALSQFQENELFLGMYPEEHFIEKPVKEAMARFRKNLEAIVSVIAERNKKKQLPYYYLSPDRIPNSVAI

Tests used:
15-LOX = 15-LOX (Homo sapiens, UniProt P16050); experiment: 15-LOX fluorescent assay (in vitro lipoxygenase inhibition); conditions: read-out: IC50 (μM) values for in vitro lipoxygenase inhibition, 15-LOX; 50 nM recombinant 15-LOX, 20 μM LA, DHR123 fluorescence; several values in a cell = repeat determinations
12-LOX = 12-LOX (Homo sapiens, UniProt P18054); experiment: 12-LOX fluorescent assay (in vitro lipoxygenase inhibition); type: biochemical; conditions: read-out: IC50 (μM) values for in vitro lipoxygenase inhibition, 12-LOX; 100 nM recombinant 12-LOX, 20 μM AA, DHR123 fluorescence; several values in a cell = repeat determinations
5-LOX = 5-LOX (Homo sapiens, UniProt P09917); experiment: 5-LOX fluorescent assay (in vitro lipoxygenase inhibition); type: biochemical; conditions: read-out: IC50 (μM) values for in vitro lipoxygenase inhibition, 5-LOX; recombinant 5-LOX cell lysate, 20 μM AA, DHR123 fluorescence; several values in a cell = repeat determinations

| Compound | IC50 (15-LOX) | IC50 (12-LOX) | IC50 (5-LOX) [µM] |
| --- | --- | --- | --- |
| CN(C)CCc1cc(Nc2ccccc2)ccc1Nc1ccccc1Cl | 0.09 µM and 0.17 µM | 0.12 µM and 0.13 µM |  |
| FC(F)(F)c1cc(Nc2ccc(Cl)cc2)ccc1NCCN1CCOCC1 | 0.09 µM | 0.06 µM | 0.08 |
| c1ccc(Nc2ccc(-c3ccccc3)c(NCCn3cncn3)c2)cc1 [SS20308-0095-01, N^2-(2-(1H-1,2,4-triazol-1-yl)ethyl)-N^4-phenylbiphenyl-2,4-diamine] | 0.44 µM | 0.19 µM | 0.25 |
